Measured values reported in patent US20170051014A1 (CAREGEN CO., LTD., priority 2014, published 2017).

Assay: general procedure: peptide synthesis; chloro trityl chloride resin (CTL resin, Nova Biochem Cat No. 01-64-0021)
Details: whole synthesis; for crude yield: scale of the general procedure 700 mg resin

In the case of “H-QCRFFRSAC-OH (cysteine pairing not given here)”, the crude mass was 0.75 g and the crude yield was 86.5%.
Work on “H-YCRFFNAFC-OH (cysteine pairing not given here)” yielded a crude mass of 0.70 g and a crude yield of 80.7%.
